Taken from: PubChem BioAssay AID743454 (Peter MacCallum Cancer Centre, 2014)

Aim: 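Search for knock-downs that restore vorinostat killing in resistant colon cancer cells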 (primary screen)
Cell system: human HCT116-VR colon cancer cells, selected for vorinostat resistance
Reagents: siRNA pool against human genes, 40 nM siRNA pool
Timing: vorinostat for 24 h, read-out about 72 h after transfection
Challenge: vorinostat at 2.5 µM final
Measured: 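Two measures, CellTiter-Fluor viability and luminescent caspase 3/7 activity, each as fold change against same-plate mock wells, mean of duplicates, then screen-wide robust z-score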
Scale: viability robust z-score: higher = more viable cells than screen typical; caspase robust z-score: higher = more caspase 3/7 activity than screen typical
Rule for the call: 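Hits are knock-downs in viability class RV1/RV2 or caspase class CA1/CA2, excluding ones that killed cells in the no-drug cell-count arm; hits then retested with single siRNAs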
This is an unselected part of about 18,000 reagents. In the full data, 450 (2.5%) got an active call. 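Single biological run; no consistent viability z cut-off exists, so the class columns, not z-scores, define the calls.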

After knock-down of VAMP1 [SID134316764] the results were viability hit class no change; caspase hit class no change; viability robust z-score -1.71; caspase robust z-score 2.19; inactive.
Depletion of ETNK2 [SID56478982] resulted in: viability hit class no change; caspase hit class no change; viability robust z-score -1.82; caspase robust z-score -1.37; inactive.
Depletion of PHKB [SID134312707] resulted in: viability hit class no change; caspase hit class no change; viability robust z-score 0.74; caspase robust z-score 1.6; inactive.
Depletion of GUCA2B [SID135622398] resulted in: viability hit class no change; caspase hit class no change; viability robust z-score 0.92; caspase robust z-score 1.48; inactive.
Against CERK [SID152152071], the entry reads viability hit class no change; caspase hit class no change; viability robust z-score 1.14; caspase robust z-score -0.22; inactive.
For H2AC18 [SID134315774], the entry reads viability hit class no change; caspase hit class no change; viability robust z-score 1.19; caspase robust z-score -0.67; inactive.
LOC389834 [SID135625006] gave viability hit class no change; caspase hit class no change; viability robust z-score 1.12; caspase robust z-score -0.52; inactive.
SIM2 [SID135621603] gave viability hit class no change; caspase hit class no change; viability robust z-score 0.85; caspase robust z-score -0.39; inactive.
For BLCAP [SID152154701], the values are viability hit class no change; caspase hit class no change; viability robust z-score -1.53; caspase robust z-score 4.92; inactive.

3 of these entries in another layout:
gene	PubChem SID	viability hit class	caspase hit class	viability robust z-score	caspase robust z-score	activity call
GUCA2B	SID135622398	no change	no change	0.92	1.48	inactive
CERK	SID152152071	no change	no change	1.14	-0.22	inactive
H2AC18	SID134315774	no change	no change	1.19	-0.67	inactive

Additional results follow:
FGF13 [SID135622210] gave viability hit class no change; caspase hit class no change; viability robust z-score -0.04; caspase robust z-score -0.57; inactive.
CA6 [SID135621896] showed viability hit class no change; caspase hit class no change; viability robust z-score 0.24; caspase robust z-score -0.8; inactive.
LURAP1L [SID134329415] gave viability hit class no change; caspase hit class no change; viability robust z-score 0.36; caspase robust z-score 0.55; inactive.
Against SPATA4 [SID135623584], the entry reads viability hit class no change; caspase hit class no change; viability robust z-score 1.36; caspase robust z-score -0.21; inactive.
For PKN3 [SID56478823], the values are viability hit class no change; caspase hit class no change; viability robust z-score -0.8; caspase robust z-score -1; inactive.
With knock-down of CCDC80 [SID134322131] the results were viability hit class no change; caspase hit class no change; viability robust z-score 0.24; caspase robust z-score 2.12; inactive.
Depletion of MS4A13 [SID135625173] came out at: viability hit class no change; caspase hit class no change; viability robust z-score 0.01; caspase robust z-score -1.19; inactive.
For USO1 [SID152149438], the entry reads viability hit class no change; caspase hit class no change; viability robust z-score -0.27; caspase robust z-score -0.52; inactive.
WFDC8 [SID152149938] gave viability hit class no change; caspase hit class no change; viability robust z-score 0.08; caspase robust z-score -0.88; inactive.
For ZMYND12 [SID134319762], the values are viability hit class no change; caspase hit class no change; viability robust z-score -0.1; caspase robust z-score 1.52; inactive.
For SLC35E1 [SID134312593] the deposit lists viability hit class no change; caspase hit class no change; viability robust z-score -0.02; caspase robust z-score -0.68; inactive.
Depletion of OR51M1 [SID152146846] came out at: viability hit class no change; caspase hit class no change; viability robust z-score -0.38; caspase robust z-score 0.73; inactive.
